Laboratory results published in patent publication US9884065B2, “Inhibiting activity of senescent cells using a glucocorticoid” (Buck Institute for Research on Aging, priority 2011, dated 2018).
For some of these results: At least one compound was matched to its structure with a doubt left. Some of these results come from one statement about several compounds together.

Legend:
Type in all cases: cell-based, human
[1] = test system: IL-6; assay: IL-6 ELISA of conditioned media from X-irradiated senescent HCA2 fibroblasts; conditions: RU-486 plus corticosterone or cortisol
Experimental: To validate glucocorticoids as SASP regulators, they were added within 15 min after irradiation (unless otherwise indicated). For cells induced to senesce by MKK6 or RAS overexpression, glucocorticoid treatment started 16 hours after infection. Glucocorticoids were re-added in fresh media every other day. Six days after irradiation or selection, cells were given serum-free DMEM with or without glucocorticoid for 24 hours; the conditioned media were collected and frozen for ELISAs.
Conditioned media were filtered and stored at −80° C. Cell numbers were determined in every experiment. ELISAs were performed using kits and procedures from PerkinElmer (IL-6 AL223F). Data were normalized and expressed as pg/ml/cell/24 h.
To confirm the ability of corticosterone to suppress senescence-associated IL-6 secretion, fresh HCA2 fibroblast cultures were prepared, and senescence was induced by X-irradiation (10 Gy). Under these conditions, cells undergo growth arrest within 24-48 hours, but require 4-5 days before SASP components are detected in the medium (Coppe et al., 2008, PLoS Biol. 6:2853-2868; Rodier et al., 2009, Nature Cell Biol. 11:973-979; Coppe et al., 2010, PLoS ONE 5:e9188; Freund et al., 2011, EMBO J. 30:1536-1548). Varying concentrations of corticosterone were added immediately after irradiation, and the cells were maintained in the drug for 6 days. […]

[2] = test system: SASP factor mRNA; assay: Real-time quantitative PCR of transcripts in HCA2 cells (normalized to tubulin); conditions: for at least 7 days after irradiation; 500 nM corticosterone or 100 nM cortisol
Description: Cells (7,500/well) in 96-well plates were lysed and reverse transcribed using the Cells-To-Ct kit (Ambion).

[3] = test system: IL-6; assay: Initial drug screen (Prestwick Chemical Library), IL-6 ELISA of medium; conditions: 2.5 μM, 48 hours, HCA2 fibroblasts, 0.2% serum
Experimental: The initial drug screen was performed in a 96-well format using automated liquid handling with a Biomek FX (Beckman Coulter, CA). Senescent cells were plated 24 hours after X-irradiation at 7,500 cells per well in 96-well plates. Six days after plating the senescent cells, the pre-senescent cells were plated at 7,500 cells per well in 96-well plates. Twenty-four hours after pre-senescent plating, both pre-senescent and senescent cells were washed and incubated in low (0.2%) serum for 48 hours to arrest cell proliferation of the pre-senescent cells. […] Forty-eight hours after compound addition, the medium in each well was removed and frozen for assay by ELISA to quantitate the levels of IL-6. The cells, which remained in the wells after the medium was removed, were lysed and ATP levels were measured (ATPlite 1-step assay, Perkin Elmer, MA) to exclude compounds that lowered IL-6 through toxicity (cell death). Experimental wells in each plate were normalized to plate mean or same-plate DMSO controls for the ELISA and ATP assays, respectively.
To identify small molecules that may be potential SASP modulators, a screening strategy that entailed administering compounds to parallel 96-well plates containing human fibroblasts (strain HCA2) that were either quiescent or senescent was developed. […] After 48 hours, the medium from each well was removed, and the cells were lysed. […]

## CC#C[C@]1(O)CC[C@H]2[C@@H]3CCC4=CC(=O)CCC4=C3[C@@H](c3ccc(N(C)C)cc3)C[C@@]21C [RU-486]
[1]
  senescence-associated IL-6 secretion suppressed by the glucocorticoids, co-treatment: rescued the senescence-associated IL-6 secretion

## C[C@]12C[C@H](O)[C@H]3[C@@H](CCC4=CC(=O)CC[C@@]43C)[C@@H]1CC[C@@H]2C(=O)CO [corticosterone]
[2]
  IL-1α and IL-6 mRNA levels: < 10 % of control

## C[C@]12CCC(=O)C=C1CC[C@@H]1[C@@H]2[C@@H](O)C[C@@]2(C)[C@H]1CC[C@]2(O)C(=O)CO [cortisol]
[2]
  IL-1α and IL-6 mRNA levels: < 10 % of control

## Nc1cc(N2CCCCC2)nc(N)[n+]1[O-] [minoxidil]
[3]
  IL-6 secretion (ELISA): suppressed IL-6 secretion
